Binding data for 2 molecules are collected here from paper doi:10.1101/2024.07.20.604396.

Experiment [1] has as its target mCherry::Rab11. The experiment can be described thus: co-IP.
The target in experiment [2] is HA::Insep (Inseparable, CG32069) (Drosophila) (UniProt Q9VTE1). The experiment can be described thus: co-IP.

These are yes or no findings as the source states them, for the method shown. In cells and extracts the contact can be indirect. Binding can be weak; no strength is given.

B1: IER3IP1 (in HCT116 or HEK293 cells) (protein, UniProt Q9Y5U9 1-82)
chain: MAFTLYSLLQAALLCVNAIAVLHEERFLKNIGWGTDQGIGGFGEEPGIKSQLMNLIRSVRTVMRVPLIIVNSIAIVLLLLFG
Consider B1, for which, in experiment [1], the binding entry was “binds”.

B2: Rab11 (Drosophila, in S2 cells) (protein, UniProt O18335 1-214)
chain: MGAREDEYDYLFKVVLIGDSGVGKSNLLSRFTRNEFNLESKSTIGVEFATRSIEVDGKTIKAQIWDTAGQERYRAITSAYYRGAVGALLVYDIAKHLTYENVERWLRELRDHADQNIVIMLVGNKSDLRHLRSVPTDEAKLFAERNGLSFIETSALDSTNVETAFQNILTEIYRIVSQKQIRDPPEGDVIRPSNVEPIDVKPTVTADVRKQCCQ
As to B2, the binding entry in experiment [2] is “binds”.
